Measurements reported in PubChem BioAssay AID493246 (Drosophila RNAi Screening Center, 2011)
The screen tested about 21,000 reagents; below is an unselected part of those that have a named target and a result. Over the whole deposit, 429 (2%) were called active. 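Values are raw and not normalised between plates; calls rest on per-plate z-scores that were not deposited.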 Unmarked entries are inactive. Reagents against one gene are numbered here. Names joined by + are all predicted targets of the reagent. Not stated in the record: the amount of reagent, the time to read-out.

Test: 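Genome-wide search for dsRNAs that reduce cell number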 (primary screen)
System: Drosophila Kc and S2R+ cells
Reagents: long dsRNA against Drosophila genes
Measured: 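Cell number per well after knock-down, printed as raw plate values; calls were based on per-plate z-scores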
Reading the numbers: Kc cell number and S2R+ cell number: higher = more cells remaining
Active means: 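Active when the per-plate z-score of cell number is 3 or more in the direction of fewer cells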

For CG11699 (GeneID 32101), what does the deposit list?
Kc cell number, rep 1: 1.59e6; Kc cell number, rep 2: 1.53e6; S2R+ cell number, rep 1: 1.04e6; S2R+ cell number, rep 2: 1.12e6

For CR46300 (GeneID 3885581), how do the results read?
Kc cell number, rep 1: 1.81e6; Kc cell number, rep 2: 1.88e6; S2R+ cell number, rep 1: 1.19e6; S2R+ cell number, rep 2: 1.44e6

For Gyc89Da (GeneID 42001), what was measured?
Kc cell number, rep 1: 1.55e6; Kc cell number, rep 2: 1.55e6; S2R+ cell number, rep 1: 1.06e6; S2R+ cell number, rep 2: 9.90e5

Which result is listed for CG16922 (retired record) (GeneID 32030)?
Kc cell number, rep 1: 1.59e6; Kc cell number, rep 2: 1.51e6; S2R+ cell number, rep 1: 8.51e5; S2R+ cell number, rep 2: 9.73e5

For Pvf1 (GeneID 32876), how do the results read?
Kc cell number, rep 1: 1.54e6; Kc cell number, rep 2: 1.60e6; S2R+ cell number, rep 1: 1.18e6; S2R+ cell number, rep 2: 1.27e6

With CG34244 (GeneID 5740216), what does the deposit list?
Kc cell number, rep 1: 1.42e6; Kc cell number, rep 2: 1.49e6; S2R+ cell number, rep 1: 1.13e6; S2R+ cell number, rep 2: 1.32e6

Which result is listed for Septin2 (GeneID 42438)?
Kc cell number, rep 1: 1.84e6; Kc cell number, rep 2: 1.85e6; S2R+ cell number, rep 1: 1.34e6; S2R+ cell number, rep 2: 1.42e6

Which result is listed for CG42299 + CG42300 #1?
Kc cell number, rep 1: 1.51e6; Kc cell number, rep 2: 1.54e6; S2R+ cell number, rep 1: 1.03e6; S2R+ cell number, rep 2: 1.14e6

How did the screen score CG42299 + CG42300 #2?
Kc cell number, rep 1: 1.51e6; Kc cell number, rep 2: 1.51e6; S2R+ cell number, rep 1: 1.03e6; S2R+ cell number, rep 2: 1.14e6

For att-ORFB + DPCoAC, how do the results read?
Kc cell number, rep 1: 1.47e6; Kc cell number, rep 2: 1.45e6; S2R+ cell number, rep 1: 1.06e6; S2R+ cell number, rep 2: 1.13e6

With otk2 (GeneID 36284), what does the deposit list?
Kc cell number, rep 1: 1.60e6; Kc cell number, rep 2: 1.66e6; S2R+ cell number, rep 1: 1.41e6; S2R+ cell number, rep 2: 1.58e6

For verm (GeneID 40149), how do the results read?
Kc cell number, rep 1: 1.62e6; Kc cell number, rep 2: 1.72e6; S2R+ cell number, rep 1: 1.13e6; S2R+ cell number, rep 2: 1.25e6

With CG5727 (GeneID 34356), how do the results read?
Kc cell number, rep 1: 1.44e6; Kc cell number, rep 2: 1.43e6; S2R+ cell number, rep 1: 1.17e6; S2R+ cell number, rep 2: 1.28e6

With CG17734 (GeneID 41359), how do the results read?
Kc cell number, rep 1: 1.41e6; Kc cell number, rep 2: 1.38e6; S2R+ cell number, rep 1: 1.02e6; S2R+ cell number, rep 2: 1.18e6

Which result is listed for RanBP3 (GeneID 42804)?
Kc cell number, rep 1: 1.50e6; Kc cell number, rep 2: 1.66e6; S2R+ cell number, rep 1: 1.00e6; S2R+ cell number, rep 2: 1.14e6

For SmE (GeneID 34080), how do the results read?
Kc cell number, rep 1: 1.17e6; Kc cell number, rep 2: 1.28e6; S2R+ cell number, rep 1: 7.80e5; S2R+ cell number, rep 2: 9.11e5

How did the screen score kat80 (GeneID 32581) #1?
Kc cell number, rep 1: 1.56e6; Kc cell number, rep 2: 1.60e6; S2R+ cell number, rep 1: 1.14e6; S2R+ cell number, rep 2: 1.27e6

Which result is listed for kat80 (GeneID 32581) #2?
Kc cell number, rep 1: 1.51e6; Kc cell number, rep 2: 1.52e6; S2R+ cell number, rep 1: 1.13e6; S2R+ cell number, rep 2: 1.27e6

With Parp16 (GeneID 36841), what was measured?
Kc cell number, rep 1: 1.56e6; Kc cell number, rep 2: 1.60e6; S2R+ cell number, rep 1: 1.12e6; S2R+ cell number, rep 2: 1.27e6

How did the screen score Dbp21E2 (GeneID 33254)?
Kc cell number, rep 1: 1.29e6; Kc cell number, rep 2: 1.33e6; S2R+ cell number, rep 1: 7.97e5; S2R+ cell number, rep 2: 9.45e5

With or (GeneID 43943), what was measured?
Kc cell number, rep 1: 1.56e6; Kc cell number, rep 2: 1.69e6; S2R+ cell number, rep 1: 1.39e6; S2R+ cell number, rep 2: 1.48e6

What is on record for G6P (GeneID 33476)?
Kc cell number, rep 1: 1.56e6; Kc cell number, rep 2: 1.60e6; S2R+ cell number, rep 1: 1.05e6; S2R+ cell number, rep 2: 1.18e6

With CG4452 (GeneID 39069), what was measured?
Kc cell number, rep 1: 1.61e6; Kc cell number, rep 2: 1.60e6; S2R+ cell number, rep 1: 1.13e6; S2R+ cell number, rep 2: 1.15e6

With CSN3 (GeneID 40308), what was measured?
Kc cell number, rep 1: 1.37e6; Kc cell number, rep 2: 1.44e6; S2R+ cell number, rep 1: 9.25e5; S2R+ cell number, rep 2: 1.06e6

What did the screen give for CG3081 (GeneID 31395)?
Kc cell number, rep 1: 1.62e6; Kc cell number, rep 2: 1.47e6; S2R+ cell number, rep 1: 1.08e6; S2R+ cell number, rep 2: 1.19e6

With CG13117 (GeneID 34289), what does the deposit list?
Kc cell number, rep 1: 1.79e6; Kc cell number, rep 2: 1.80e6; S2R+ cell number, rep 1: 1.18e6; S2R+ cell number, rep 2: 1.33e6

With Ama (GeneID 40831), what was measured?
Kc cell number, rep 1: 1.59e6; Kc cell number, rep 2: 1.67e6; S2R+ cell number, rep 1: 1.27e6; S2R+ cell number, rep 2: 1.29e6

Sorted by “S2R+ cell number, rep 2” (lowest first): 2 of the entries above
SmE (GeneID 34080) → Kc cell number, rep 1 = 1.17e6; Kc cell number, rep 2 = 1.28e6; S2R+ cell number, rep 1 = 7.80e5; S2R+ cell number, rep 2 = 9.11e5
kat80 (GeneID 32581) #1 → Kc cell number, rep 1 = 1.56e6; Kc cell number, rep 2 = 1.60e6; S2R+ cell number, rep 1 = 1.14e6; S2R+ cell number, rep 2 = 1.27e6
